Values quoted from earlier work as cited in patent publication US10865384B2, “2,4,5-tri-substituted azole-based casein kinase 1 inhibitors as inducers for cardiomyogenesis” (AGENCY FOR SCIENCE, TECHNOLOGY AND RESEARCH, priority 2014, dated 2020).

System: PKB phosphorylation
Conditions: cited from earlier work

C[S+]([O-])c1ccc(-c2nc(-c3ccc(F)cc3)c(-c3ccncc3)[nH]2)cc1 (stereo not shown) [SB203580, reference compound]
IC50 (published by companies), PKB phosphorylation: 3 to 5 µM (PKB phosphorylation)
